The values below come from article PMC4845015.

Protein sequences, listed by entry. Tags and fused reporters are not part of them. Lines headed by an entry give the natural chain unless they say otherwise; changes in a name come on top.
UniProt D3ZYL0: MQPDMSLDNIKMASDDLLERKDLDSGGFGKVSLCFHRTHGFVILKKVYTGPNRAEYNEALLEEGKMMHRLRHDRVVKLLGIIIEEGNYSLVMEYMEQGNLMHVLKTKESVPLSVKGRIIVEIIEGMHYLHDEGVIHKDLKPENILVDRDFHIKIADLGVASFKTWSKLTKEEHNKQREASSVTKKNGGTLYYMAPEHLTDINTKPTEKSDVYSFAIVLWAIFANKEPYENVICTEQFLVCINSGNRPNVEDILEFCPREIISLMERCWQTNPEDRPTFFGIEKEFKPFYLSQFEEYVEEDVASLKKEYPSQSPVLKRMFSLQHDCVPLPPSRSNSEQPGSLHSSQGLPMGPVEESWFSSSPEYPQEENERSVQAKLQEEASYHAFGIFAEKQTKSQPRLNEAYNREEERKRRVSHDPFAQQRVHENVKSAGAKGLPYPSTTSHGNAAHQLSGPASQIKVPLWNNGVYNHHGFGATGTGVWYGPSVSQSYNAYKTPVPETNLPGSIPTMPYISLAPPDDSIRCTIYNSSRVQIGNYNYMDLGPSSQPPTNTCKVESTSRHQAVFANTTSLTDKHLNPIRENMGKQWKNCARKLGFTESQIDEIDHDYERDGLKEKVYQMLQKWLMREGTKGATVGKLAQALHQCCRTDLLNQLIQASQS

Experiment [1] concerns the target receptor-interacting serine/threonine kinase (RIPK) 1, rat (rat (endogenous in PC12 and in rat primary hippocampal neurons)) (UniProt D3ZYL0). In words: proximity ligation; Duolink In Situ PLA with anti-RIPK1 and anti-RIPK3 antibodies on fixed rat primary hippocampal neurons electroporated with Hrs siRNA.
Experiment [2] has the same target. In words: co-IP; lysates of Hrs-silenced PC12 cells (500 μg total protein) in TNE buffer (50 mM Tris-HCl pH 7.4, 150 mM NaCl, 0.5% NP-40, 1 mM EDTA); first antibody overnight at 4 °C, protein-G-agarose 2 h, 4 washes; Western blot; precipitating antibody not named.

These are yes or no findings as the source states them, for the method shown. Binding seen in cells or lysates may run through a third protein. Binding calls can cover weak binding; strength is not graded here.

B1: receptor-interacting serine/threonine kinase (RIPK) 3, rat (protein, UniProt Q9Z2P5 1-478)
chain: MSSVKLWLNGASSISLVGSEELENLGFVGKGGFGAVFRARHTAWNLDVAVKIVNSKKISREVKAMVNLRHENVLLLLGVTENLEWDYVYGPALVTGFMENGSLSGLLQPSCPRPWPLLCRLLEEVVLGMCYLHSLNPSLLHRDLKPSNVLLDPELHAKLADFGLSTFQGGSQSGSGSGSRDSGGTLAYLAPELLDNDGKASKASDVYSFGVLVWTVLAGREAEVVDKTSLIRGAVCNRQRRPPLTELPPDSPETPGLEGLKELMTHCWSSEPKDRPSFQDCESKTNNVYILVQDKVDAAVSKVKHYLSQYRSSDTKLSARESSQKGTEVDCPRETIVYEMLDRLHLEEPSGSVPERLTSLTERRGKEASFGHATPAGTSSDTLAGTPQIPHTLPSRGTTPRPAFTETPGPDPQRNQGDGRNSNPWYTWNAPNPMTGLQSIVLNNCSEVQIGQHNCMSVQPRTAFPKKEPAQFGRGRGW
Take B1: the binding entry in experiment [1] and in experiment [2] was “binds” each time.
